Data reported in patent publication US20160046678A1 (ZYNGENIA, published 2016).
No constants are given. Whether binding was seen depends on the method and setting. Some results given as binding are weak or reduced against the parent protein; the word gives no strength.

By UniProt entry, the sequences of proteins in these tests, tags left out. Residues count along the entry.
UniProt P05231, residues 30-212: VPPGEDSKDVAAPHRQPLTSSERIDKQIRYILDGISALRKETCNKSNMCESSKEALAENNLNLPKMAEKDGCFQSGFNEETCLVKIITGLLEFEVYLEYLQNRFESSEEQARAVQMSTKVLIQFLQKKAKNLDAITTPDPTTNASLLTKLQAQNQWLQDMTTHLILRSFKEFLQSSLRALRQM

B1: ILB665 (peptide)
peptide: YYQGFPWFQIGQAGQGSATGGSSFNEDCMWDPLLMDCAYSPGGGSYYQGFPWFQIGQAGQGSATGGSSFNEDCMWDPLLMDCAYSP
B2: ILB681 (peptide)
peptide: B1 peptide
B3: ILB659 (peptide)
peptide: SKMEQYPWNMGQAGQGSATGGSSFNEDCMWDPLLMDCAYSPQGSATGGSSFNEDCMWDPLLMDCAYSP
B4: ILB669 (peptide)
peptide: ADRFFVWNPYGQAGQGSATGGSSFNEDCMWDPLLMDCAYSPQGSATGGSSFNEDCMWDPLLMDCAYSP
B5: ILB660 (peptide)
peptide: YHWQQQHQYHGQAGQGSATGGSSFNEDCMWDPLLMDCAYSPQGSATGGSSFNEDCMWDPLLMDCAYSP
B6: ILB654 (peptide)
peptide: PDWITWQPAWGQAGQGSATGGSSFNEDCMWDPLLMDCAYSPQGSATGGSSFNEDCMWDPLLMDCAYSP
B7: ILB670 (peptide)
peptide: QRYMMQTMLIGQAGQGSATGGSSFNEDCMWDPLLMDCAYSPQGSATGGSSFNEDCMWDPLLMDCAYSP
B8: ILB680 (peptide)
peptide: YYQGFPWFQIGQAGQGSATGGSSFNEDCMWDPLLMDCAYSPGGGSYYQGFPWFQIGQAGQGSATGGSSFNEDCMWDPLLMDCAYSPGGGSYYQGFPWFQIGQAGQGSATGGSSFNEDCMWDPLLMDCAYSP
B9: ILB664 (peptide)
peptide: QCCMSQVSWYVGQAGQGSATGGSSFNEDCMWDPLLMDCAYSPQGSATGGSSFNEDCMWDPLLMDCAYSPQGSATGGSSFNEDCMWDPLLMDCAYSP
B10: ILB671 (peptide)
peptide: PWSKATQPGWGQAGQGSATGGSGSTASSFNEDCMWDPLLMDCAYSPQGSATGGSGSTASSFNEDCMWDPLLMDCAYSPQGSATGGSGSTASSFNEDCMWDPLLMDCAYSP
B11: ILB675 (peptide)
peptide: MQFSWTQHFFGQAGQGSATGGSGSTASSGSGSSFNEDCMWDPLLMDCAYSPGMQFSWTQHFFGQAGQGSATGGSGSTASSGSGSSFNEDCMWDPLLMDCAYSP
B12: ILB661 (peptide)
peptide: DWQVYYKTWIGQAGQGSATGGSGSTASSGSGSSFNEDCMWDPLLMDCAYSPQGSATGGSGSTASSGSGSSFNEDCMWDPLLMDCAYSP

Each binder was assayed against IL6 (UniProt P05231) (assay: MRD identification, Example 48).

binding | Binder
binds | GEAWCWDPIRMDVRVCSVFI [ILB739]
binds | TSHPCWWDPIMMSCWLEE [ILB771]
binds | RAFTCPWDPLIMDCAGAS [ILB758]
binds | VGVDCPWDPLMMECAGRN [ILB744]
binds | B1
binds | B2
binds | RWNVCAWDPLLMQCASAP [ILB766]
binds | QIAFCLWDPLLMDCTVQT [ILB769]
binds | TDSWCHTLYWQLHHCAILE [ILB765]
binds | B3
binds | HEEDCWWDPLIMQCFNRT [ILB750]
binds | QWLHCFWDPLMMKCVTVS [ILB748]
binds | YRYTTYWWYSGQAGQGSATGGSGSTASSFNEDCMWDPLLMDCAYSP [ILB662]
binds | IWWGYSWDHYGQAGQGSATGGSSFNEDCMWDPLLMDCAYSP [ILB672]
binds | WTFEWWIYTKGQAGQGSATGGSSFNEDCMWDPLLMDCAYSP [ILB667]
binds | RPYYYQWHIWGQAGQGSATGGSSFNEDCMWDPLLMDCAYSP [ILB656]
binds | ADSWCHTLYWQLQHCLSQE [ILB755]
binds | IVNFTWNFLSGQAGQGSFNEDCMWDPLLMDCAYSP [ILB673]
binds | TGFFWSWSFGGQAGQGSATGGSSFNEDCMWDPLLMDCAYSP [ILB657]
binds | MFYEYQWWIHGQAGQGSFNEDCMWDPLLMDCAYSP [ILB653]

binding | Binder
binds | WRWHAEWDWYGQAGQGSATGGSSFNEDCMWDPLLMDCAYSP [ILB650]
binds | WRWEFGYYYHGQAGQGSATGGSSFNEDCMWDPLLMDCAYSP [ILB652]
binds | LYPSCPWDPILMQCSALK [ILB763]
binds | MSVSCNWDPLLMTCRLPT [ILB767]
binds | QWSFHWWSHTGQAGQGSATGGSSFNEDCMWDPLLMDCAYSP [ILB666]
binds | WPFYEYIIHMGQAGQGSATGGSSFNEDCMWDPLLMDCAYSP [ILB655]
binds | PGLRCPWDPLMMTCVAHP [ILB768]
binds | B4
binds | PTPLCHWDPLLMHCTASD [ILB764]
binds | GPYSCPWDPMKMECAYSP [ILB740]
binds | YTKHCQRLPTYKICNLFM [ILB752]
binds | B5
binds | SPQECPWDPIAMKCAFVR [ILB770]
binds | B6
binds | FHSTCFWDPLLMRCVSAP [ILB742]
binds | SVSPCIWDPLLMMCGNYS [ILB743]
binds | B7
binds | RLGACVWDPLMMQCAWIS [ILB762]
binds | LHANSIATNWGQAGQGSATGGSSFNEDCMWDPLLMDCAYSP [ILB676]
binds | VQLYCIWDPLMMDCGQRS [ILB772]

binding | Binder
binds | B8
binds | HSRWCYWEPIRMIEMCMGDK [ILB756]
binds | QFPYESPPSIGQAGQGSATGGSSFNEDCMWDPLLMDCAYSP [ILB678]
binds | FGDTCFWHPFNEDMCESKP [ILB747]
binds | B9
binds | B10
binds | HTANCPWDPLIMNCSFQS [ILB751]
binds | VSAECYWDPLMMQCSTDM [ILB745]
binds | EIEQCWWDPMLMEGVCWPSI [ILB760]
binds | GDDWCAWDPIRMQCSYTK [ILB759]
binds | B11
binds | EYSSCNWDPLLMQCQRVV [ILB741]
binds | B12
binds | TPHPCHWDPMIMYCMLEM [ILB749]
binds | YEEHCALFPTDWICTLH [ILB649]
binds | HGRSCAWDPLKMDCVWYH [ILB761]
binds | PGVACFWDPLLMSCSYDE [ILB757]
binds | PDSWCHTLYWQLIHCERQE [ILB677]
